No constants are given. Whether binding was seen depends on the method and setting. Some binding calls cover weakened binding; strength is not graded here. For some assays here: Where a sequence is shown, tags or fusion partners need not be part of it.
T1: GST-MPP2 PDZ domain fusion protein (UniProt Q14168)
T1 sequence: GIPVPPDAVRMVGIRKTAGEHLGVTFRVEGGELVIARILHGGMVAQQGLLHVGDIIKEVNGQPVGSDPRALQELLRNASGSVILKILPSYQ

T2: GST-AF6 PDZ domain fusion protein (UniProt P55196)
T2 sequence: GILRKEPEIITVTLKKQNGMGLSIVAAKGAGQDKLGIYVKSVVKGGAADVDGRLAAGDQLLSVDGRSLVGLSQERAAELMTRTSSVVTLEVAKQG

T3: GST-DVL1 PDZ domain fusion protein (human) (UniProt O14640)
T3 sequence: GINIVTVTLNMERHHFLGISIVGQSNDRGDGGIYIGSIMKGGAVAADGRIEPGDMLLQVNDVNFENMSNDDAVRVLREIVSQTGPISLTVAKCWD

T4: GST-RGS12 PDZ domain fusion protein (human) (UniProt O14924)
T4 sequence: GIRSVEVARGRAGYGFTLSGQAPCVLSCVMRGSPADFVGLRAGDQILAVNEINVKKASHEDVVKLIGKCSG

T5: GST-LIM PDZ domain fusion protein (human) (UniProt Q96HC4)
T5 sequence: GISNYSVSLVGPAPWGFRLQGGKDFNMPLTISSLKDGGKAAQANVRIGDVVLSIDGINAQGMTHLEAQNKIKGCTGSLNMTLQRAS


Experiments:
Experiment in all cases: A/G plate assay (TABLE 2)
[1] = target: GST-PSD95 PDZ domains 1-3 fusion protein (human) (UniProt P78352)
[2] = target: T1, GST-MPP2 PDZ domain fusion protein
[3] = target: T2, GST-AF6 PDZ domain fusion protein
[4] = target: T3, GST-DVL1 PDZ domain fusion protein (human)
[5] = target: T4, GST-RGS12 PDZ domain fusion protein (human)
[6] = target: T5, GST-LIM PDZ domain fusion protein (human)

| Binder | binding [2] | binding [5] | further results |
| --- | --- | --- | --- |
| ISKATPALPTVSISSSAEV (biotin at the amino-terminus) [Clasp-1 C-terminal PL peptide AA1L] |  |  | binding [1]: binds |
| ERLKLEPHEGLLLRFPYAA (biotin at the amino-terminus) [CD98 C-terminal PL peptide AA15L] | binds |  |  |
| CAISGTSSDRGYGSPRYAEV (biotin at the amino-terminus) [Clasp-4 C-terminal PL peptide AA3L] |  |  | binding [3]: binds; binding [1]: binds |
| EVICYIEKPGVETLEDSVF (biotin at the amino-terminus) [CDW125 (IL5R) C-terminal PL peptide AA28L] |  | binds |  |

More lines, main results first:

| binding [2] | binding [5] | Binder | further results |
| --- | --- | --- | --- |
| binds |  | QGDPALQDAGDSSRKEYFI (biotin at the amino-terminus) [Glycophorin C C-terminal PL peptide AA37L] |  |
|  | binds | TTNNNPNSAVNIKKIFTDV (biotin at the amino-terminus) [KV1.3 C-terminal PL peptide AA33L] | binding [4]: binds |
| binds | binds | TREDIYVNYPTFSRRPKTRV (biotin at the amino-terminus) [DNAM-1 C-terminal PL peptide AA22L] | binding [6]: binds |
